The values below come from PubChem BioAssay AID248 (DTP/NCI, 2004).

The list is a part of this screen's results and no random one: its compounds were picked by chemical class. Other doses and runs of a compound may be missing. T/C: endpoint of the treated group in % of that of the vehicle group. For survival time, the PubChem record calls one and a half times the control and up active, and a quarter to a half above the control has no call in these data; cut-offs in other NCI protocols can differ. Some T/C values are marked as having no survivor count here; that says nothing about deaths at the dose. Schedules are NCI's codes, taken here to give the interval after Q, in days (D) or hours (H), and the number of doses after X. Some entries were tested several times; the results are listed from low to high. Signs of the kind (2×) give the number of equal values in this list. Some schedules carry Z or #; the key to these is not given.

This experiment relates to L1210 leukemia ip in BDF1 mice, survival T/C. Kind of experiment: NCI In Vivo Anticancer Drug Screen. Data for tumor model L1210 Leukemia (intraperitoneal) in B6D2F1 (BDF1) mice. The conditions noted are these: T/C endpoint: mean survival time, higher T/C = longer survival.
Setting [1] is: dose: 100.0 mg/kg/injection, schedule: Q01DX001 (ip), vehicle: carboxymethylcellulose (CMC).

Regarding `ClCCN(CCCl)c1ccc(C=C2C=CC=C2)cc1`, the T/C was 90 [survivor count not shown] and 93 % of control [survivor count not shown] (dose: 88.8 mg/kg/injection, schedule: Q01DX001 (ip), vehicle: carboxymethylcellulose (CMC)); 94 % of control [survivor count not shown] under setting [1]; 95 [survivor count not shown] and 98 % of control [survivor count not shown] (dose: 133.4 mg/kg/injection, schedule: Q01DX001 (ip), vehicle: carboxymethylcellulose (CMC)); 90 [survivor count not shown], 104 [survivor count not shown], 153 % of control [survivor count not shown] (dose: 200.0 mg/kg/injection, schedule: Q01DX001 (ip), vehicle: carboxymethylcellulose (CMC)); 93 [survivor count not shown] and 102 % of control [survivor count not shown] (dose: 300.0 mg/kg/injection, schedule: Q01DX001 (ip), vehicle: carboxymethylcellulose (CMC)); 94 % of control [survivor count not shown] (dose: 400.0 mg/kg/injection, schedule: Q01DX001 (ip), vehicle: carboxymethylcellulose (CMC)).

With `C[N+](CCCl)(CCCl)Cc1ccc([N+](=O)[O-])cc1`, the T/C was 110 % of control [survivor count not shown] (dose: 50.0 mg/kg/injection, schedule: Q01DX001 (ip), vehicle: carboxymethylcellulose (CMC)) and 104 % of control [survivor count not shown] under setting [1].

For `O=C(O)CCc1ccc(CN(CCCl)CCCl)cc1`, the T/C is 125 % of control [survivor count not shown] (dose: 0.9 mg/kg/injection, schedule: Q01DX Z (ip), vehicle: methylcellulose (MC)); 143 % of control [survivor count not shown] (dose: 1.3 mg/kg/injection, schedule: Q01DX Z (ip), vehicle: methylcellulose (MC)); 106 % of control [survivor count not shown] (dose: 1.56 mg/kg/injection, schedule: Q04DX003 (ip), vehicle: saline); 101 [survivor count not shown], 110 [survivor count not shown], 126 [survivor count not shown], 146 % of control [survivor count not shown] (dose: 2.0 mg/kg/injection, schedule: Q01DX Z (ip), vehicle: methylcellulose (MC)); 118 % of control [survivor count not shown] (dose: 2.05 mg/kg/injection, schedule: Q01DX009 (ip), vehicle: saline); 111 [survivor count not shown] and 118 % of control [survivor count not shown] (dose: 2.05 mg/kg/injection, schedule: Q04DX003 (ip), vehicle: saline). The T/C is 114 [survivor count not shown], 117 [survivor count not shown] (2×), 140 % of control [survivor count not shown] (dose: 3.0 mg/kg/injection, schedule: Q01DX Z (ip), vehicle: methylcellulose (MC)); 132 % of control [survivor count not shown] (dose: 3.12 mg/kg/injection, schedule: Q01DX009 (ip), vehicle: saline); 111 [survivor count not shown], 116 [survivor count not shown], 132 % of control [survivor count not shown] (dose: 3.12 mg/kg/injection, schedule: Q04DX003 (ip), vehicle: saline); 98 % of control [survivor count not shown] (dose: 4.5 mg/kg/injection, schedule: Q01DX Z (ip), vehicle: methylcellulose (MC)); 114 [survivor count not shown] and 121 % of control [survivor count not shown] (dose: 4.68 mg/kg/injection, schedule: Q04DX003 (ip), vehicle: saline); 122 % of control [survivor count not shown] (dose: 5.0 mg/kg/injection, schedule: Q01DX001 (ip), vehicle: carboxymethylcellulose (CMC)). The T/C (dose: 10.0 mg/kg/injection, schedule: Q01DX001 (ip), vehicle: carboxymethylcellulose (CMC)) was 119 % of control [survivor count not shown].

`OC1(C#CCN(CCCl)CCCl)CCCC1`: the T/C (dose: 15.0 mg/kg/injection, schedule: Q01DX001 (ip), vehicle: saline) is 123 % of control [survivor count not shown] and the T/C (dose: 30.0 mg/kg/injection, schedule: Q01DX001 (ip), vehicle: saline) is 123 % of control [survivor count not shown].

For the compound `CCC(C)NN(CCCl)CCCl` (configuration not stated), the T/C reads like this: (dose: 50.0 mg/kg/injection, schedule: Q01DX001 (ip), vehicle: saline) 108 % of control [survivor count not shown]; (dose: 100.0 mg/kg/injection, schedule: Q01DX001 (ip), vehicle: saline) 135 % of control [survivor count not shown]; (dose: 200.0 mg/kg/injection, schedule: Q01DX001 (ip), vehicle: saline) 152 % of control [survivor count not shown].

In the case of `CCC1(N(CCCl)CCCl)C(=O)NC(=O)NC1=O`, the T/C (dose: 50.0 mg/kg/injection, schedule: Q04DX002 (ip), vehicle: Klucel (hydroxypropylcellulose) (HPC)) was 107 % of control [survivor count not shown]; the T/C (dose: 100.0 mg/kg/injection, schedule: Q04DX002 (ip), vehicle: Klucel (hydroxypropylcellulose) (HPC)) was 94 [survivor count not shown], 107 [survivor count not shown], 132 % of control [survivor count not shown]; the T/C (dose: 200.0 mg/kg/injection, schedule: Q04DX002 (ip), vehicle: Klucel (hydroxypropylcellulose) (HPC)) is 115 [survivor count not shown] and 132 % of control [survivor count not shown] (2×); the T/C (dose: 400.0 mg/kg/injection, schedule: Q04DX002 (ip), vehicle: Klucel (hydroxypropylcellulose) (HPC)) was 102 [survivor count not shown], 109 [survivor count not shown], 114 % of control [survivor count not shown].

Regarding `O=[N+]([O-])c1ccc(/C=C/N(CCCl)CCCl)cc1`, the T/C by setting is: (dose: 2.5 mg/kg/injection, schedule: Q01DX Z (ip), vehicle: saline) 100 % of control [survivor count not shown]; (dose: 5.0 mg/kg/injection, schedule: Q01DX Z (ip), vehicle: saline) 102 % of control [survivor count not shown]; (dose: 10.0 mg/kg/injection, schedule: Q01DX Z (ip), vehicle: other) 103 % of control [survivor count not shown]; (dose: 10.0 mg/kg/injection, schedule: Q01DX Z (ip), vehicle: saline) 105 % of control [survivor count not shown]; (dose: 20.0 mg/kg/injection, schedule: Q01DX Z (ip), vehicle: other) 98 % of control [survivor count not shown]; (dose: 40.0 mg/kg/injection, schedule: Q01DX Z (ip), vehicle: other) 97 % of control [survivor count not shown]. The T/C (dose: 80.0 mg/kg/injection, schedule: Q01DX Z (ip), vehicle: other) was 97 % of control [survivor count not shown].
